Measured values reported in patent publication US8329914B2, “Cyclic benzimidazole derivatives useful as anti-diabetic agents” (Merck Sharp & Dohme Corp, priority 2008, dated 2012).
Some results were stated once for a whole list of compounds, not compound by compound.

Amino acid sequences for entries named in this document (tags omitted). A change or cut given only in a name is not applied to a line headed by its entry.
UniProt Q13131: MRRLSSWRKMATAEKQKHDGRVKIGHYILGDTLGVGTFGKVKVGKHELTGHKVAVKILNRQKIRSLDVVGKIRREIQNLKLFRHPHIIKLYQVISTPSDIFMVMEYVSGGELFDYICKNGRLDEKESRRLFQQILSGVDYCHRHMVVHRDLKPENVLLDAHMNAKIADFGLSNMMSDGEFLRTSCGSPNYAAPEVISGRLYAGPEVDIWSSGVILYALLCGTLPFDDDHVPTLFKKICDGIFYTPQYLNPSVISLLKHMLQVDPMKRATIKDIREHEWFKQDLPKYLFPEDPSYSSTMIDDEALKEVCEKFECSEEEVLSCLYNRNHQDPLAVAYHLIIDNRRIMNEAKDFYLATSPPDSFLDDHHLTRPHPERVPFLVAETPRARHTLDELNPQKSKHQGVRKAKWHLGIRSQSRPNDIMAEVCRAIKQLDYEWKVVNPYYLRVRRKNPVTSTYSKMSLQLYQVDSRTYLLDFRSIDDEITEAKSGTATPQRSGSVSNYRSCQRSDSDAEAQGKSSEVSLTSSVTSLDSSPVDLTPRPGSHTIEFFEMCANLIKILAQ
UniProt Q9Y478: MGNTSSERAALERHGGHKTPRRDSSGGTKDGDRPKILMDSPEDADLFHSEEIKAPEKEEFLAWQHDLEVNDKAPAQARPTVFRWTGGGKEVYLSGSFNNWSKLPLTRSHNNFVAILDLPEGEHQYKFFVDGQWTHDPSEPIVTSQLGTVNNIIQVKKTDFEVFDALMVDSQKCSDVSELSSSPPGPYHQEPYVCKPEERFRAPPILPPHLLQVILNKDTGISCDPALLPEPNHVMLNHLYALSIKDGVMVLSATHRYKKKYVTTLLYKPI

biological target: recombinant human AMPK complex 1 (containing α1β1γ1) (Homo sapiens, UniProt Q13131+Q9Y478); experiment: AMPKSAMSF (in vitro AMPK activation assay); type: biochemical; conditions: recombinant human AMPK complex 1 (α1β1γ1)
Protocol: The recombinant human AMPK complex 1 (containing α1β1γ1) was obtained from baculovirus expression system. Recombinant viruses were generated by cotransfection of AMPK/pBacPak9 clones with Baculogold baculovirus DNA (Pharmingen) in spodoptera frugiperda 21 cells according to the manufacturer's instructions. Each round of virus amplification was performed for 5 days in Grace's medium containing 10% serum. Virus that had been subjected to three rounds of amplification was used for all protein production procedures. To express the AMPK complex, sf21 cells were adapted to serum free medium (SF900 II, Invitrogen) by sequential dilution from serum containing stocks into SF900II medium and maintained in shaker flasks at 90 rpm at 27° C. The recombinant AMPK enzyme complex was produced by triple infection, one recombinant virus for each of the subunits, in sf21 cells under serum free conditions. Cells were infected in log phase, 1×10^6 cells/ml, at a multiplicity of infection of ˜5. Cells were harvested by centrifugation at 10,000×g for 15 minutes after 72 hours of infection with viruses. The insect cell pellet from 2 liters of culture was resuspended in 50 ml lysis buffer (20 mM Tris-HCl, 50 mM NaCl, 50 mM NaF, 30 mM Na PPi, 0.25 M sucrose, 10 mM ZnCl2, 2 mM DTT, 0.4 mg/ml digitonin) and subjected to two cycles of freeze-thaw lysis in a dry-ice ethanol bath. Insoluble material was removed by centrifugation at 10,000×g and the supernatant was fractionated with use of polyethylene glycol (PEG). The protein fraction precipitating between 2.5 and 6% PEG was used for further purification using a Blue-Sepharose step (Zhou et al, J. Clin Invest. 108, 1167-1174, 2001).
The total in vitro AMPK activation assay volume is 50 μl in a 96-well plate. The reaction mixture contained 100 μM ATP (0.5 μCi ^33P-ATP per reaction), and 50 μM SAMS (HMRSAMSGLHLVKRR) in a buffer (20 mM HEPES, pH 7.0, 5 mM MgCl2, 0.01% Brij35). The reaction was initiated with addition of the enzyme. After 30-minute incubation at 30° C., the reaction was stopped by addition of 80 μl 1% H3PO4. Aliquots (100 μl) were transferred to 96-well MultiScreen plates (MAPHNOB50; Millipore Corp., Bedford, Mass., USA). The plate was washed three times with 1% H3PO4 followed by detection in a Top-count. The counts per minute from the basal activity (the reaction without activator) was subtracted from each well and the data were expressed as % maximum AMP activation followed by EC50 calculation.

SMILES | EC50 [µM]
O=P(O)(O)CSc1nc2cc(Cl)c(C#Cc3ccccc3)cc2[nH]1 [Example 1, (5-Chloro-6-phenylethynyl-1H-benzoimidazol-2-ylsulfanylmethyl)-phosphonic acid] | < 10
O=P(O)(O)CSc1nc2cc(C#Cc3ccc(F)cc3)c(Cl)cc2[nH]1 [Example 2] | < 10
O=P(O)(O)CSc1nc2cc(C#Cc3ccc(C(F)(F)F)cc3)c(Cl)cc2[nH]1 [Example 3] | < 10
O=P(O)(O)CSc1nc2cc(C#Cc3cccc(F)c3)c(Cl)cc2[nH]1 [Example 4] | < 10
O=P(O)(O)CSc1nc2cc(C#Cc3ccccn3)c(Cl)cc2[nH]1 [Example 5] | < 10
O=P(O)(O)CSc1nc2cc(C#Cc3ccccc3F)c(Cl)cc2[nH]1 [Example 6] | < 10
O=P(O)(O)CSc1nc2cc(C#Cc3ccc(CO)cc3)c(Cl)cc2[nH]1 [Example 7] | < 10
O=P(O)(O)CSc1nc2cc(C#Cc3ccc(F)cc3F)c(Cl)cc2[nH]1 [Example 8] | < 10
O=P(O)(O)CSc1nc2cc(C#Cc3ccccc3O)c(Cl)cc2[nH]1 [Example 9] | < 10
O=P(O)(O)CSc1nc2cc(C#Cc3cccnc3)c(Cl)cc2[nH]1 [Example 10] | < 10
O=P(O)(O)CSc1nc2cc(C#Cc3ccc(Cl)cc3)c(Cl)cc2[nH]1 [Example 11] | < 10
Cc1cc(-c2cc3nc(SCP(=O)(O)O)[nH]c3cc2Cl)ccc1Cl [Example 12, [6-Chloro-5-(4-chloro-3-methyl-phenyl)-1H-benzoimidazol-2ylsulfanylmethyl]-phosphonic acid] | < 10
CN(C)C(=O)c1ccc(-c2cc3nc(SCP(=O)(O)O)[nH]c3cc2Cl)cc1 [Example 14, [6-Chloro-5-(4-dimethylcarbamoyl-phenyl)-1H-benzoimidazol-2-ylsulfanylmethyl]-phosphonic acid] | < 10
O=P(O)(O)CSc1nc2cc(-c3ccc(Cl)c(F)c3)c(Cl)cc2[nH]1 [Example 15, [6-Chloro-5-(4-chloro-3-fluoro-phenyl)-1H-benzoimidazol-2-ylsulfanylmethyl]phosphonic acid] | < 10
O=P(O)(O)CSc1nc2cc(-c3ccc(Cl)c(Cl)c3)c(Cl)cc2[nH]1 [Example 16, [6-Chloro-5-(3,4-dichloro-phenyl)-1H-benzoimidazol-2-ylsulfanylmethyl]-phosphonic acid] | < 10
CSc1ccc(-c2cc3nc(SCP(=O)(O)O)[nH]c3cc2Cl)cc1 [Example 17, [6-Chloro-5-(4-methylsulfanyl-phenyl)-1H-benzoimidazol-2-ylsulfanylmethyl]-phosphonic acid] | < 10
O=C(NC1CC1)c1cc(-c2cc3nc(SCP(=O)(O)O)[nH]c3cc2Cl)ccc1Cl [Example 18, [6-Chloro-5-(4-chloro-3-cyclopropylcarbamoyl-phenyl)-1H-benzoimidazol-2-ylsulfanylmethyl]-phosohonic acid] | < 10

SMILES | EC50 [µM]
O=P(O)(O)CSc1nc2cc(-c3ccc(N4CCOCC4)cc3)c(Cl)cc2[nH]1 [Example 20, (5-chloro-6-(4-morpholinophenyl)-1H-benzo[d]imidazol-2-ylthio)methylphosphonic acid] | < 10
COc1ccc(-c2ccc(-c3cc4nc(SCP(=O)(O)O)[nH]c4cc3Cl)cc2)cn1 [Example 21, (5-chloro-6-(4-(6-methoxypyridin-3-yl)phenyl)-1H-benzo[d]imidazol-2-ylthio)methylphosphonic acid] | < 10
O=P(O)(O)CSc1nc2cc(-c3ccc(-c4cccnc4)cc3)c(Cl)cc2[nH]1 [Example 22, (5-chloro-6-(4-(pyridin-3-yl)phenyl)-1H-benzo[d]imidazol-2-ylthio)methyl-phosphonic acid] | < 10
CC(C)Oc1ccc(-c2ccc(-c3cc4nc(SCP(=O)(O)O)[nH]c4cc3Cl)cc2)cc1 [Example 23, (5-chloro-6-(4′-isopropoxy-biphenyl-4-yl)-1H-benzo[d]imidazol-2-ylthio)methylphosphonic acid] | < 10
Cc1cncc(-c2ccc(-c3cc4nc(SCP(=O)(O)O)[nH]c4cc3Cl)cc2)c1 [Example 24, (5-chloro-6-[4-(5-methyl-pyridin-3-yl)-phenyl]-1H-benzo[d]imidazol-2-ylthio)methylphosphonic acid] | < 10
O=P(O)(O)CCCc1nc2cc(-c3ccc(-c4ccccc4)cc3)c(Cl)cc2[nH]1 [Example 25, [3-(5-Biphenyl-4-yl-6-chloro-1H-benzoimidazol-2-yl)-propyl]-phosphonic acid] | < 10
O=P(O)(O)CCc1nc2cc(-c3ccc(-c4ccccc4)cc3)c(Cl)cc2[nH]1 [Example 26, [2-(Biphenyl-4-yl-6-chloro-1H-benzoimidazol-2-yl)-ethyl]-phosphonic acid] | < 10
O=P(O)(O)CSc1nc2cc(-c3ccc4[nH]ccc4c3)c(Cl)cc2[nH]1 [Example 27] | < 10
Cn1ccc2cc(-c3cc4nc(SCP(=O)(O)O)[nH]c4cc3Cl)ccc21 [Example 28] | < 10
O=P(O)(O)CSc1nc2cc(-c3ccc(-c4ccccc4)cc3)c(Cl)cc2[nH]1 [Example 29] | < 10
O=P1(CSc2nc3cc(-c4ccc(-c5ccccc5)cc4)c(Cl)cc3[nH]2)OCCC(c2cccc(Cl)c2)O1 (stereo not shown) [Example 30, 5-Biphenyl-4-yl-6-chloro-2-[4-(3-chloro-phenyl)-2-oxo-2lambda*5*-[1,3,2]-dioxaphosphinan-2-ylmethylsulfanyl]-1H-benzoimidazole] | < 10
COc1ccc(COP(=O)(O)CSc2nc3cc(-c4ccc(-c5ccccc5)cc4)c(Cl)cc3[nH]2)cc1F [Example 31, (5-Biphenyl-4-yl-6-chloro-1H-benzoimidazol-2-ylsulfanylmethyl)-phosphonic acid mono-(3-fluoro-4-methoxy-benzyl)ester] | < 10
CCC(=O)SCCOP(=O)(O)CSc1nc2cc(-c3ccc(-c4ccccc4)cc3)c(Cl)cc2[nH]1 [Example 32, Thiopropionic acid S-{2-[(5-biphenyl-4-yl-6-chloro-1H-benzoimidazol-2-ylsulfanylmethyl)-hydroxy-phosphinoyloxy]-ethyl}ester] | < 10
CCC(=O)SCCOP(=O)(CSc1nc2cc(-c3ccc(-c4ccccc4)cc3)c(Cl)cc2[nH]1)OCCSC(=O)CC [Example 33, Thiopropionic acid S-{2-[(5-biphenyl-4-yl-6-chloro-1H-benzoimidazol-2-ylsulfanylmethyl)-(2-propionylsulfanyl-ethoxy)-phosphinoyloxy]-ethyl}ester] | < 10
O=[P@]1(CSc2nc3cc(-c4ccc(-c5ccccc5)cc4)c(Cl)cc3[nH]2)OCC[C@@H](c2ccncc2)O1 [Example 34, 5-Biphenyl-4-yl-6-chloro-2-(cis{5[1-yl-(4-pyridyl)]}-1-phosphono-2,6-dioxophosphinan-2-ylmethylsulfanyl)-1H-benzoimidazole] | < 10
O=[P@@]1(CSc2nc3cc(-c4ccc(-c5ccccc5)cc4)c(Cl)cc3[nH]2)OCC[C@@H](c2ccncc2)O1 [Example 35, 5-Biphenyl-4-yl-6-chloro-2-(trans{5[1-yl-(4-pyridyl)]}-1-phosphono-2,6-dioxophosphinan-2-ylmethylsulfanyl)-1H-benzoimidazole] | < 10
CC(C)(C)C(=O)OCOP(=O)(CSc1nc2cc(-c3ccc(-c4ccccc4)cc3)c(Cl)cc2n1COC(=O)C(C)(C)C)OCOC(=O)C(C)(C)C [Example 36, 2,2-Dimethyl-propionic acid[5-biphenyl-4-yl-6-chloro-1-(2,2-dimethylpropionyl-oxymethyl)-1H-benzoimidazol-2-ylsulfanylmethyl]-(2,2-dimethyl-propionyl-oxymethoxy)-phosohinoyloxymethyl ester] | < 10
